In patent US20180194822A1, “DISRUPTION OF THE INTERACTION BETWEEN AMYLOID BETA PEPTIDE AND DIETARY LIPIDS” (THE TRUSTEES OF COLUMBIA UNIVERSITY IN THE CITY OF NEW YORK, priority 2015, published 2018):
At least one structure is not confirmed: it was looked up by name or label, or the drawing left a doubt.

Sequences of proteins named here, by UniProt entry; tags and fusion partners are left off. Residues count along the entry.
UniProt P05067, 672-713: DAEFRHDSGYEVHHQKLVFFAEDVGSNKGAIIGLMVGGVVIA

Columns and labels:
[1] = molecular target: Aβ:ApoE:lipid binding complex (Homo sapiens, UniProt P05067); assay: ApoE binding assay: fluorescent Aβ42 on ApoE-coated plates in presence of lipid; parameters: SensoLyte Fluorescent β-Amyloid1-42 Sampler Kit, Anaspec; HiLyte Fluor (fluorescent label); purchased ApoE: rPeptide; labelled Aβ: Anaspec; settings: Aβ-FAM on ApoE coated plates, with vs without DHA lipid
Method: Plates were prepared as above and incubated with a constant amount of apolipoprotein E (ApoE, rPeptide) at 12.5 pmol/well FIG. 2A or 4 pmol/well FIG. 2B for 1 hour at room temperature with shaking. Plates were then blocked for 1 hour and washed with PB ST. Aβ labled with HiLyte (Anaspec) was prepared as above and mixed with increasing amount of lipid in constant concentration of NOG (0.0034%) in SuperBlock Blocking buffer and incubated overnight at 4° C. Binding was read as above at 503/528 excitation/emission).
Assays were done in triplicate wells and reported as mean+/−standard error. Binding kinetics and best fit curve fitting were accomplished using Prism Graphpad software.
Specific binding was determined by subtracting non-specific binding to the plate in absence of ApoE (no ApoE, 0).

[2] = cited from earlier work

Compound: CC/C=C\C/C=C\C/C=C\C/C=C\C/C=C\C/C=C\CCC(=O)O [DHA, docosahexaenoic acid]
- effect of DHA lipid on Aβ:ApoE binding constant [1]: reducing Aβ:ApoE binding
- estimated critical micelle concentration (CMC) [2]: 60 µM
